Results deposited as PubChem BioAssay AID1259308 (NCATS, 2017)

Screen: 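Genes whose loss raises luciferase production in HEK293 cells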 (primary screen)
Cell system: human HEK293 embryonic kidney cells stably expressing firefly luciferase (HEK-CMV-Luc2-Hygro)
Reagents: single siRNA against human genes, 0.8 pmol siRNA per well
Duration: 72 h
Detection: 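Reporter luminescence and viable-cell signal on separate replicate plates, given as percent of non-targeting control and median/MAD z-scores, plus per-cell luciferase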
Scale: total luciferase, z-score and total luciferase, % of control: higher = more reporter protein produced; luciferase per cell, z-score: higher = more reporter output per viable cell; viable cells, % of control: higher = more viable cells
Hit rule: 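Active when the median/MAD z-score for overall luciferase is greater than 3; a gene was taken forward for validation with new siRNAs if at least two of its three siRNAs passed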
Calls: active = raised luciferase; inactive = no rise
In all, the deposit lists about 59,000 reagents; this is a random part of them. About 1,510 of them (2.6%) count as active. 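Calls use total luciferase alone and ignore viability, so some active siRNAs may act by altering cell number.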 The numbers tell different reagents against one gene apart. Reagent sequences are not shown.

no.	gene symbol	siRNA no.	total luciferase, z-score	total luciferase, % of control	luciferase per cell, z-score	viable cells, % of control	Call
1	SLC46A2 (GeneID 57864)	1	1.21	106	0.79	96.2	inactive
2	SLC46A2 (GeneID 57864)	2	-0.769	66.6	-0.15	77.4	inactive
3	SLC46A2 (GeneID 57864)	3	-1.11	59.7	-1.62	102	inactive
4	TBC1D28 (GeneID 254272)	1	-0.0788	80.3	0.0401	88.8	inactive
5	TBC1D28 (GeneID 254272)	2	-1.51	51.8	-0.832	72.1	inactive
6	TBC1D28 (GeneID 254272)	3	0.785	97.5	0.953	84.8	inactive
7	PTPN13 (GeneID 5783)	1	0.396	89.8	1.15	74.1	inactive
8	PTPN13 (GeneID 5783)	2	1.11	104	0.0828	114	inactive
9	PTPN13 (GeneID 5783)	3	0.186	85.6	-0.233	102	inactive
10	SLC6A2 (GeneID 6530)	1	1.28	107	0.885	95	inactive
11	SLC6A2 (GeneID 6530)	2	-0.818	65.6	-0.921	93.5	inactive
12	SLC6A2 (GeneID 6530)	3	1.79	117	1.07	99	inactive
13	GOLGA6B (GeneID 55889)	1	0.61	94	0.0173	105	inactive
14	GOLGA6B (GeneID 55889)	2	-0.15	78.9	-0.323	96	inactive
15	GOLGA6B (GeneID 55889)	3	0.349	88.8	0.166	95	inactive
16	OSGEP (GeneID 55644)	1	0.202	85.9	0.526	83.6	inactive
17	OSGEP (GeneID 55644)	2	0.381	89.5	-0.316	109	inactive
18	OSGEP (GeneID 55644)	3	2.9	140	1.88	95	inactive
19	AIM2 (GeneID 9447)	1	1.24	107	2.22	66.4	inactive
20	AIM2 (GeneID 9447)	2	-0.603	69.9	-0.763	95.5	inactive
21	AIM2 (GeneID 9447)	3	-0.36	74.7	-0.239	88.9	inactive
22	TMEM174 (GeneID 134288)	1	5.93	200	4.86	62	active
23	TMEM174 (GeneID 134288)	2	-0.491	72.1	0.625	68.4	inactive
24	TMEM174 (GeneID 134288)	3	-0.463	72.7	0.0928	79.3	inactive
25	KRTAP4-7 (GeneID 100132476)	1	2.22	126	1.37	98.3	inactive
26	KRTAP4-7 (GeneID 100132476)	2	-0.377	74.4	-0.947	107	inactive
27	KRTAP4-7 (GeneID 100132476)	3	-0.0603	80.7	-0.141	93.6	inactive
28	SPG7 (GeneID 6687)	1	-0.346	75	0.021	83.4	inactive
29	SPG7 (GeneID 6687)	2	1.89	119	3.19	57.7	inactive
30	SPG7 (GeneID 6687)	3	-0.116	79.6	-0.933	114	inactive
31	R3HCC1 (GeneID 203069)	1	5.77	197	4.05	75.6	active
32	R3HCC1 (GeneID 203069)	2	-2.33	35.5	-1.56	59.8	inactive
33	R3HCC1 (GeneID 203069)	3	-0.291	76.1	-0.11	87.5	inactive
34	SEC16A (GeneID 9919)	1	0.119	84.3	-0.175	98.6	inactive
35	SEC16A (GeneID 9919)	2	-0.229	77.3	-0.447	97.2	inactive
36	SEC16A (GeneID 9919)	3	0.787	97.5	0.536	94.7	inactive
37	ARHGAP44 (GeneID 9912)	1	-0.835	65.3	-0.141	75.7	inactive
38	ARHGAP44 (GeneID 9912)	2	1.8	118	1.46	89.5	inactive
39	ARHGAP44 (GeneID 9912)	3	0.653	94.9	1.19	77.5	inactive
40	PRKD1 (GeneID 5587)	1	0.0797	83.5	0.163	89.3	inactive
41	PRKD1 (GeneID 5587)	2	-0.587	70.2	0.0736	76.9	inactive
42	PRKD1 (GeneID 5587)	3	-1.37	54.6	-1.59	92.6	inactive

10 of these entries, reformatted:
AIM2 (GeneID 9447) #2
- total luciferase, z-score: -0.603
- total luciferase, % of control: 69.9
- luciferase per cell, z-score: -0.763
- viable cells, % of control: 95.5
- Call: inactive

AIM2 (GeneID 9447) #3
- total luciferase, z-score: -0.36
- total luciferase, % of control: 74.7
- luciferase per cell, z-score: -0.239
- viable cells, % of control: 88.9
- Call: inactive

TMEM174 (GeneID 134288) #1
- total luciferase, z-score: 5.93
- total luciferase, % of control: 200
- luciferase per cell, z-score: 4.86
- viable cells, % of control: 62
- Call: active

TMEM174 (GeneID 134288) #2
- total luciferase, z-score: -0.491
- total luciferase, % of control: 72.1
- luciferase per cell, z-score: 0.625
- viable cells, % of control: 68.4
- Call: inactive

TMEM174 (GeneID 134288) #3
- total luciferase, z-score: -0.463
- total luciferase, % of control: 72.7
- luciferase per cell, z-score: 0.0928
- viable cells, % of control: 79.3
- Call: inactive

KRTAP4-7 (GeneID 100132476) #1
- total luciferase, z-score: 2.22
- total luciferase, % of control: 126
- luciferase per cell, z-score: 1.37
- viable cells, % of control: 98.3
- Call: inactive

KRTAP4-7 (GeneID 100132476) #2
- total luciferase, z-score: -0.377
- total luciferase, % of control: 74.4
- luciferase per cell, z-score: -0.947
- viable cells, % of control: 107
- Call: inactive

KRTAP4-7 (GeneID 100132476) #3
- total luciferase, z-score: -0.0603
- total luciferase, % of control: 80.7
- luciferase per cell, z-score: -0.141
- viable cells, % of control: 93.6
- Call: inactive

SPG7 (GeneID 6687) #1
- total luciferase, z-score: -0.346
- total luciferase, % of control: 75
- luciferase per cell, z-score: 0.021
- viable cells, % of control: 83.4
- Call: inactive

SPG7 (GeneID 6687) #2
- total luciferase, z-score: 1.89
- total luciferase, % of control: 119
- luciferase per cell, z-score: 3.19
- viable cells, % of control: 57.7
- Call: inactive

Additional entries:
no.	gene symbol	siRNA no.	total luciferase, z-score	total luciferase, % of control	luciferase per cell, z-score	viable cells, % of control	Call
43	PABPC5 (GeneID 140886)	1	-0.54	71.1	-0.808	98.4	inactive
44	PABPC5 (GeneID 140886)	2	-0.813	65.7	-0.526	84.3	inactive
45	PABPC5 (GeneID 140886)	3	-0.377	74.4	-0.22	88.1	inactive
46	REG1A (GeneID 5967)	1	-0.784	66.3	-1.35	106	inactive
47	REG1A (GeneID 5967)	2	1.82	118	0.981	102	inactive
48	REG1A (GeneID 5967)	3	-1.57	50.7	-1.7	88.7	inactive
49	TEX47 (GeneID 219557)	1	2.72	136	1.96	90.7	inactive
50	TEX47 (GeneID 219557)	2	2.97	141	2.64	78.6	inactive
51	TEX47 (GeneID 219557)	3	-0.409	73.8	-0.838	103	inactive
52	TSPAN8 (GeneID 7103)	1	-1.27	56.7	-1.47	93.2	inactive
53	TSPAN8 (GeneID 7103)	2	-0.0623	80.6	0.342	82.4	inactive
54	TSPAN8 (GeneID 7103)	3	-0.647	69	-0.524	88.5	inactive
55	MAP6 (GeneID 4135)	1	0.893	99.6	0.649	93.9	inactive
56	MAP6 (GeneID 4135)	2	1.33	108	1.4	83.7	inactive
57	MAP6 (GeneID 4135)	3	-0.0782	80.3	2.81	42.9	inactive
58	MAP3K6 (GeneID 9064)	1	1.39	109	0.767	99.9	inactive
59	MAP3K6 (GeneID 9064)	2	-0.598	70	-0.595	91.5	inactive
60	MAP3K6 (GeneID 9064)	3	-0.296	76	0.0324	84.2	inactive
61	CHCHD6 (GeneID 84303)	1	1.54	113	1.6	82.6	inactive
62	CHCHD6 (GeneID 84303)	2	-0.444	73	-0.639	96.6	inactive
63	CHCHD6 (GeneID 84303)	3	1.49	111	1.34	87.5	inactive
64	SERPINB13 (GeneID 5275)	1	0.713	96.1	0.842	86	inactive
65	SERPINB13 (GeneID 5275)	2	-0.836	65.3	-1.31	103	inactive
66	SERPINB13 (GeneID 5275)	3	-0.163	78.6	-0.754	107	inactive
67	BRK1 (GeneID 55845)	1	-0.537	71.2	-0.216	84.2	inactive
68	BRK1 (GeneID 55845)	2	0.372	89.3	-0.0505	101	inactive
69	BRK1 (GeneID 55845)	3	-2.13	39.6	-2.98	96.9	inactive
70	BASP1 (GeneID 10409)	1	-0.75	67	-0.829	93.1	inactive
71	BASP1 (GeneID 10409)	2	-0.109	79.7	-0.0953	91.3	inactive
72	BASP1 (GeneID 10409)	3	0.307	88	0.161	94.3	inactive
73	TRIM4 (GeneID 89122)	1	0.172	85.3	-0.211	101	inactive
74	TRIM4 (GeneID 89122)	2	-0.626	69.4	-0.975	100	inactive
75	TRIM4 (GeneID 89122)	3	-0.0429	81	0.824	72.9	inactive
